According to PubChem BioAssay AID504834 (National Center for Advancing Translational Sciences (NCATS), 2011):
The campaign covered roughly 320,000 compounds. About 22,000 (6.9%) were called active. The shares of active, inactive and inconclusive entries below differ from those in the screen. The call rests on the fitted dose curve; in most records, active means well fitted inhibition curve with a large enough effect; inconclusive means small, poorly fitted or top-dose-only effect, or another doubt; inactive means no such curve, though single readings can be large or run the other way. Potencies of inconclusive entries are doubtful fits and often do not repeat.

Assay: Primary qHTS for delayed death inhibitors of the malarial parasite plastid, 96 hour incubation
Conditions: P. falciparum luciferase reporter growth; series mostly up to 28.7 µM
Summary of the method: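 Delayed-death screen, second-generation endpoint: infected erythrocytes, 2% hematocrit, 0.05% parasitemia final; 96 hours at 37 C, 5% CO2; luciferase detection reagent; luminescence decrease equals reduced growth.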
Potency means the concentration at half of the fitted maximal effect.

Row | SMILES | Potency
1 | CCn1nc(C(=O)O)c(=O)c2cc3c(cc21)OCO3 | inconclusive: 6.42 µM [inhibitor, single point]
2 | O=C(NN1C(=O)c2cc(Br)ccc2NC1c1cc(Br)cc(Br)c1O)c1ccncc1 (stereo unspecified) | inconclusive: 18.5 µM [inhibitor, single point]
3 | O=C(COC(=O)COc1ccc(Cl)cc1Cl)NC1CCCCCC1 | inconclusive: 0.586 µM [inhibitor, full curve, poor fit]
4 | N=c1c(C(=O)NC2CCCC2)cc2c(=O)n3ccccc3nc2n1Cc1ccccc1 | inconclusive: 2.94 µM [inhibitor, full curve]
5 | CN(C)c1nc(=S)nc(NCc2ccccc2)[nH]1 | inconclusive: 5.86 µM [inhibitor, partial curve]
6 | COc1ccc2cc(C(N)=O)c(=Nc3ccccc3)oc2c1 | inconclusive: 9.28 µM [inhibitor, partial curve, poor fit]
7 | COc1ccccc1Nc1c([N+](=O)[O-])cncc1[N+](=O)[O-] | inconclusive: 1.65 µM [inhibitor, partial curve, poor fit]
8 | CCc1ccc(-c2n[nH]c(=O)c3ccccc23)cc1 | inconclusive: 18.5 µM [inhibitor, single point]
9 | O=C(NCCN1CCOCC1)c1ccc2c(c1)N(Cc1c(F)cccc1Cl)C(=O)c1ccccc1S2 | active: 9.28 µM
10 | Cc1nnc(NC(=O)c2nn(CC(C)C)c(=O)c3ccccc23)s1 | inconclusive: 18.5 µM [inhibitor, single point]
11 | CCOC(=O)c1c(C)[nH]c(C(=O)OCC(=O)N(C)c2c(N)n(Cc3ccccc3)c(=O)[nH]c2=O)c1C | inconclusive: 10.4 µM [inhibitor, single point]
12 | Cn1c(CC(=O)NNC(=O)c2ccccc2[N+](=O)[O-])nc2ccccc21 | inactive
13 | CC(C)n1cnc2c(NCc3ccc(S(N)(=O)=O)cc3)nc(NCc3ccc(S(N)(=O)=O)cc3)nc21 | inconclusive: 10.4 µM [inhibitor, single point]
14 | Cc1ccc(C)n1-c1cc([N+](=O)[O-])ccc1-n1ccnc1 | inconclusive: 5.22 µM [inhibitor, partial curve]
15 | CC(=O)OC(C(=O)NC1CCCCC1)c1cccc(C)c1 (stereo unspecified) | inconclusive: 9.28 µM [inhibitor, partial curve]
16 | CCOc1ccc(S(=O)(=O)Nc2ccccc2C(=O)N(C)C2CCN(C)CC2)cc1 | inconclusive: 8.28 µM [inhibitor, single point]
17 | O=C(NN1C(=O)NC2(CCCCC2)C1=O)c1cc2ccccc2o1 | inconclusive: 0.0657 µM [inhibitor, full curve, poor fit]
18 | C/C(=N\NC(=S)Nc1ccc(F)cc1)c1ccc2c(c1)OCCO2 | inconclusive: 9.28 µM [inhibitor, single point]
19 | CCC(C)N(C(=O)c1csnn1)C(C(=O)NCc1ccc(F)cc1)c1ccco1 (stereo unspecified) | inconclusive: 7.38 µM [inhibitor, partial curve, poor fit]
20 | O=C1CC(NC2CCN(C(=O)c3cccc(F)c3)CC2)C(=O)N1 (stereo unspecified) | inactive
21 | Fc1ccccc1NC(=S)N(CCN1CCCCC1)Cc1ccco1 | inconclusive: 0.0329 µM [inhibitor, full curve, poor fit]
22 | OCCOc1nnnn1-c1ccccc1 | inconclusive: 11.7 µM [inhibitor, single point]
23 | COc1ccc(-c2nnc3ccc(SCC(=O)NCC4CCCO4)nn23)cc1 (stereo unspecified) | inconclusive: 0.0033 µM [inhibitor, full curve, poor fit]
24 | CC1CCN(S(=O)(=O)c2ccc3c(c2)N(C)C(=O)CC(=O)N3C)CC1 | inactive

Row | SMILES | Potency
25 | COc1ccc(Cl)cc1NC(=O)CN(C)C(=O)c1cc2c(F)cccc2s1 | inconclusive: 18.5 µM [inhibitor, single point]
26 | COc1ccc(NC(=O)c2ccccc2NC(=O)c2cccs2)cc1 | inactive
27 | Cc1ccc(NC(=S)N2CCC(NC(=O)c3ccc(F)cc3)CC2)cc1 | inconclusive: 14.7 µM [inhibitor, partial curve]
28 | Cc1ccc(-c2csc(N3CCC(NS(=O)(=O)c4ccc5c(c4)OCCO5)CC3)n2)cc1 | active: 9.28 µM
29 | Cc1ccc(NC(=O)CSc2nnc(-c3cccs3)o2)cc1S(=O)(=O)N1CCCCC1 | inconclusive: 13.1 µM [inhibitor, single point]
30 | Cc1cccc(C)c1OCC(=O)N1CCc2ccccc2C1 | active: 7.38 µM
31 | CC(C)(C)c1csc(NNC(=O)c2ccc(Cl)cc2)n1 | inconclusive: 11.7 µM [inhibitor, partial curve]
32 | S=C(Nc1ccccc1)Nc1nc2ccccc2n1CCOc1ccccc1 | inactive
33 | COC(=O)/C=C/C(=O)Nc1cccnc1 | inactive
34 | COc1ccc(/C=C2\SC(=O)NC2=S)cc1OC | inactive
35 | O=C(NCCCNC(=O)c1cnccn1)c1cccc(Cl)c1 | inactive
36 | CC1(C)Cc2c(C#N)c(NC3CCCCC3)nc(-c3ccco3)c2CO1 | active: 9.28 µM
37 | Cc1cc(NC(=O)CSc2cn(C)c3ccccc23)no1 | inconclusive: 11.7 µM [inhibitor, partial curve, poor fit]
38 | O=C(NC(=S)Nc1ccccc1N1CCCCC1)c1ccc(F)cc1Cl | inconclusive: 16.5 µM [inhibitor, single point]
39 | NC(=O)CC(NC(=O)Cc1cccc2ccccc12)c1ccc(N2CCCCCC2)c([N+](=O)[O-])c1 (stereo unspecified) | inconclusive: 18.5 µM [inhibitor, single point]
40 | Cc1ccc(S(=O)(=O)Nc2ccc(Nc3ccccc3)cc2)cc1 | inconclusive: 10.4 µM [inhibitor, partial curve, poor fit]
41 | CCn1c(/C=N/NC(=O)c2ccc(OC)cc2)nc2ccccc21 | inconclusive: 14.7 µM [inhibitor, single point]
42 | COc1ccc(CCNC(=O)c2ccccc2SC)cc1 | inactive
43 | CC(C)=CCN1CCN(Cc2cccn2-c2nccs2)CC1CCO (stereo unspecified) | active: 10.4 µM
44 | NS(=O)(=O)c1ccc(CCNC(=O)c2ccc3c(c2)OCCO3)cc1 | inactive
45 | Nc1ccc(-n2cc(-c3ccccc3)[nH]c2=S)cc1 | inconclusive: 18.5 µM [inhibitor, single point]
46 | Cc1ccccc1NC(=O)CSc1ccc(-c2ccccn2)nn1 | inconclusive: 18.5 µM [inhibitor, single point]
47 | O=C(COC(=O)c1c2c(nc3ccccc13)/C(=C\c1cccs1)CCC2)Nc1ccccc1 | inconclusive: 10.4 µM [inhibitor, single point]
48 | CC(Oc1ccc(Cl)cc1)C(=O)Nc1ncccn1 (stereo unspecified) | inconclusive: 18.5 µM [inhibitor, single point]

Row | SMILES | Potency
49 | CC(=O)N1N=C(c2cccc([N+](=O)[O-])c2)OC1c1cccc(Br)c1 (stereo unspecified) | inconclusive: 18.5 µM [inhibitor, single point]
50 | COc1cc(/C=C(/C#N)c2nc3ccccc3[nH]2)ccc1OCC(=O)Nc1ccccc1C(C)C | active: 9.28 µM
51 | COc1cc(Cl)c(C)cc1NC(=O)CSc1cc(Cl)ccc1Cl | inconclusive: 0.415 µM [inhibitor, partial curve, poor fit]
52 | CCc1nc(NCc2ccco2)c2oc3ccccc3c2n1 | inconclusive: 0.0026 µM [inhibitor, full curve, poor fit]
53 | COc1ccc(-c2nn(-c3ccccc3)cc2/C=N/NS(=O)(=O)c2ccccc2)cc1 | active: 11.7 µM
54 | CNc1ncc(C(=O)c2ccc(F)cc2)s1 | inactive
55 | CCc1ccc(/C=C2\SC(=S)N(CCCC(=O)Nc3ccccn3)C2=O)cc1 | inactive
56 | O=C(CNS(=O)(=O)c1ccc(F)cc1)N1CCCCCC1 | inactive
57 | CCOc1ccc(N(CC(=O)NCc2ccc(F)cc2)C(=O)CCC(=O)Nc2nccs2)cc1 | inconclusive: 8.28 µM [inhibitor, partial curve, poor fit]
58 | CC(=O)NC(CC(=O)Nc1ccc2c(c1)OCCO2)c1ccccc1 (stereo unspecified) | inactive
59 | CCOC(=O)N1CCC(NC(=O)c2oc3c(F)cccc3c2C)CC1 | inactive
60 | O=C(O)/C(=C\C(=O)c1ccccc1)Nc1ccccc1 | inactive
61 | Cc1cc(=O)oc(C)c1C(=O)N1CCc2c([nH]c3ccccc23)C1C(C)C (stereo unspecified) | active: 11.7 µM
62 | Cc1cc(C(=O)OCC(=O)NCc2ccco2)c(C)n1-c1ccc(F)cc1 | inconclusive: 2.33 µM [inhibitor, partial curve, poor fit]
63 | CCOc1cc(N2CCOCC2)c(OCC)cc1NC(=O)c1ccc(OC(C)C)cc1 | inconclusive: 11.7 µM [inhibitor, partial curve, poor fit]
64 | CCOC(=O)C1=C(COC(=O)c2ncc(Cl)c(Cl)c2Cl)NC(=O)NC1C (stereo unspecified) | inactive
65 | CC(C)(CNc1ccc(S(=O)(=O)C(F)(F)F)cc1[N+](=O)[O-])N1CCOCC1 | inconclusive: 18.5 µM [inhibitor, single point]
66 | CCCn1c(SCC(=O)c2c(N)n(C3CC3)c(=O)[nH]c2=O)nc2cc(S(N)(=O)=O)ccc21 | inconclusive: 18.5 µM [inhibitor, single point]
67 | c1ccc(Oc2nc(N3CCOCC3)nc(N3CCOCC3)n2)cc1 | inactive
68 | CCCc1nc(SCC(=O)N2CCc3ccccc3C2)c2ccccc2n1 | inconclusive: 13.1 µM [inhibitor, single point]
69 | COC(=O)c1sccc1NC(=S)N(C)C1CCCCC1 | inconclusive: 14.7 µM [inhibitor, single point]
70 | CC(C)CC1NC(=S)N(Cc2ccccc2)C1=O (stereo unspecified) | active: 9.28 µM
71 | COc1ccc(-n2nnc3c(=O)n(CC(=O)Nc4ccc5c(c4)OCCO5)cnc32)cc1OC | inconclusive: 0.0066 µM [inhibitor, partial curve, poor fit]

Four records picked at random from those above, as already listed:
Row | SMILES | Potency
65 | CC(C)(CNc1ccc(S(=O)(=O)C(F)(F)F)cc1[N+](=O)[O-])N1CCOCC1 | inconclusive: 18.5 µM [inhibitor, single point]
63 | CCOc1cc(N2CCOCC2)c(OCC)cc1NC(=O)c1ccc(OC(C)C)cc1 | inconclusive: 11.7 µM [inhibitor, partial curve, poor fit]
57 | CCOc1ccc(N(CC(=O)NCc2ccc(F)cc2)C(=O)CCC(=O)Nc2nccs2)cc1 | inconclusive: 8.28 µM [inhibitor, partial curve, poor fit]
49 | CC(=O)N1N=C(c2cccc([N+](=O)[O-])c2)OC1c1cccc(Br)c1 (stereo unspecified) | inconclusive: 18.5 µM [inhibitor, single point]
